Measured values taken from patent US20250085285A1, “Methods for Generating Biologically Specific Chromatin Condensates and Uses Thereof” (The Regents of the University of California, priority 2022, published 2025).
At least one compound was matched to its structure with a doubt left.

Protein sequences, listed by entry. Tags and fused reporters are not part of them.
UniProt P45973, whole entry: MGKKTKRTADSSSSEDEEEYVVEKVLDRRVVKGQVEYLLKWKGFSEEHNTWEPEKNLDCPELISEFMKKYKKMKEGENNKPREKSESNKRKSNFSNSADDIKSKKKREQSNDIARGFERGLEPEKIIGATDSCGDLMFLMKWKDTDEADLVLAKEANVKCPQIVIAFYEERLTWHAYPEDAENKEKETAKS

Target: T1, HP1α-chromatin condensates (Homo sapiens, UniProt P45973)
T1 construct: 6x-His (cleaved yes); made in house; host or cells: E. coli Rosetta BL21 (DE3)
Test: HP1α-chromatin condensate in vitro droplet assay / screening (fluorescence imaging)
Type: biochemical
Settings: FIG. 7; Bioactive compound library (Selleck Chemicals), final concentration of 10 μM; H3K9me3 nucleosome arrays
Method: HP1α was diluted to the desired 2× concentration. HP1αKCK was added to HP1α at a ratio of 1:500 HP1α: HP1αKCK for evident fluorescent signal. HP1α-chromatin droplets were formed at 40 nM nucleosome array concentration in 20 mM HEPES pH 7.5, 0.1 mM EDTA and 2× HP1α-HP1αKCK in 20 mM HEPES pH 7.2, 150 mM KCl 1 mM DTT. 10 μL of 80 nM nucleosome arrays (2×) was mixed with 10 μl 2× HP1α-HP1αKCK and incubated at room temperature for 20 minutes before transferring to a glass bottom 384 well plate for imaging.
384 well glass bottom plates (Greiner Sensoplate 781892) were prepared for sample examination as follows: The wells were rinsed three times with 100 μl water, incubated with 100 μl of 2% Hellmanex for 30 mins-1 hour, rinsed with water three times again, incubated with 100 μl of 0.5M NaOH for 30 mins, rinsed with water three times, and then 70 μl of 20 mg/ml mPEG-silane dissolved in 95% EtOH was added to coat the wells. The plate was covered with foil and left overnight at 4° C. […]
After 3-4 hours of settling to the bottom of the plate, the condensates were imaged on the IN Cell Analyzer 6500HS equipped with a Nikon Plan Apo 40×/0.95NA objective and sCMOS camera. […] Classical image segmentation and quantification techniques were implemented to identify droplets and characterize their geometry, fluorescent intensity, and consequently the effectiveness of the small molecules on the droplets.

CCCS(=O)(=O)Nc1ccc(F)c(C(=O)c2c[nH]c3ncc(-c4ccc(Cl)cc4)cc23)c1F [Vemurafenib]
Effect of bioactive small molecules on HP1α-chromatin condensates: mild or no effect
